The results in this text go back to patent US6590123B2, “Aminobenzoic acid derivatives having anti-tumorigenic activity, methods of making and using the same” (Mount Sinai School of Medicine of New York University, priority 1998, dated 2003).

Where a name gives a salt, the structure may show the parent alone.

The test system of this data set is P338 leukemia lymphoma cells. In words: Survival and ED50 in mice implanted i.p. with P338 lymphoma. It is filed as in vivo, male C57 BL/6JX mice. On the procedure:
FIG. 9 is a plot graph of the survival rate of male C57 BL/6JX mice implanted (i.p.) with P338 lymphoma, from 10 to 40 days after implantation. Two groups were used for the study: a control group of ten and a test group of ten that were treated with 20 mg/kg, (i.p.) of compound 8 at 2 and 8 days post-implantation.
The in vivo efficacy of 3-BAABU and 3-IAABU of the present invention was asssessed in a murine model, along with known anti-tubule agents, vinblastine and paclitaxel, as a comparative standard. Approximately 10^6 P338 leukemia lymphoma cells/mouse were implanted intra-peritoneal (i.p.) into male C57 BL/6JX mice (Jackson Laboratories, N.Y.). On days 2 and 8 post-implantation, drugs were administrated i.p. at the following concentration ranges: 3-BAABU from 16.6 to 116 μmole/kg, 3-IAABU from 14.4 to 101 μmole/kg, vinblastine from 2.2 to 20 μmole/kg and paclitaxel from 28 to 57 μmole/kg.
Both control and treated animals were examined for ascitic tumor burden daily for 35 days. […] Therapeutic index was defined as the ratio of LD50 (lethal dose) to ED50 (effective dose).
As for `NC(=O)NC(=O)c1cccc(NC(=O)CI)c1` [Compound 9, 3-Iodoacetoamido, benzoylurea], the “therapeutic index (ratio of LD50 to ED50)” value was 3.4.

Regarding `CC[C@]1(O)C[C@@H]2CN(CCc3c([nH]c4ccccc34)[C@@](C(=O)OC)(c3cc4c(cc3OC)N(C)[C@H]3[C@@](O)(C(=O)OC)[C@H](OC(C)=O)[C@]5(CC)C=CCN6CC[C@]43[C@@H]65)C2)C1` [Vinblastine, vinblastine sulfate], the “therapeutic index (ratio of LD50 to ED50)” value is reported as 2.0. The value for `CC(=O)O[C@H]1C(=O)[C@@]2(C)[C@H]([C@H](OC(=O)c3ccccc3)[C@]3(O)C[C@H](OC(=O)[C@H](O)[C@@H](NC(=O)c4ccccc4)c4ccccc4)C(C)=C1C3(C)C)[C@]1(OC(C)=O)CO[C@@H]1C[C@@H]2O` [Paclitaxel] was 1.2; that for `NC(=O)NC(=O)c1cccc(NC(=O)CBr)c1` [Compound 8, 3-Bromoacetoamido, benzoylurea] was 3.4.
